Reference: PubChem BioAssay AID1508600 (Functional Genomics Laboratory (NCATS/FGL), 2020)
Screen size: about 53,000 sequences; about 3,700 (7%) were called active.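 How the source made its calls: active means gene knockdowns whose robust z-score for IL-1 alpha signal is at least 2 or at most -2, so actives lie on both sides; inactive means the rest.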 The list shows a part of the results.

test: Components of the Cytosolic LPS Sensing Pathway: Gene Identification via Genome-wide siRNA Screen; conditions: RAW264.7 macrophages, IL-1a HTRF, actives lie on both sides, screened at 100 nM (by protocol), cells primed 5 h with Pam3CSK4 first;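 further: robust z of the log signal after scaling to non-targeting control siRNA wells of the plate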
Outline: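 Knockdown: 100 nM siRNA, 48h, RAW264.7. Stimulation: Pam3CSK4 5 h, then LipidA via TransIT-TKO 24 h. Output: supernatant IL-1a HTRF, negative-control-normalized, log robust z-score; viability by CellTiter-Glo.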

Row | Sequence | z-score
1 | UUGGGAAAUCGAUUUUACCTT against Gm3579 | inactive: 0.132
2 | GGAAAGAUGAACAUGAAAGTT against Terf2 | inactive: 0.0214
3 | CCGCACCAUUCAGCUUUUUTT against Mmgt2 | inactive: 0.446
4 | GGCAGAGCAGUUUUCCUCATT against Kcna4 | inactive: -1.2
5 | GGUGUGUGCUUCAUCUAAATT against Smpdl3a | inactive: -0.142
6 | GGUCCAUUGAGCACUUUGCTT against Frmpd3 | inactive: -1.73
7 | GCUGAACGAGCAAUUGAGATT against Pabpc6 | inactive: 0.524
8 | GCAUAGUUUUUGACAAAACTT against Prmt6 | inactive: 0.979
9 | GGAAUAACAGAUCAUACAGTT against Olfr194 | inactive: -0.678
10 | CCCUAUUAGUGGAAGCAUGTT against Zfp738 | inactive: -1.94
11 | GGACUUGGAAGUAAUUUUCTT against C230071H18Rik | active: 2.06
12 | GCGCAUCAAAAUUGAGAGUTT against Helz | inactive: 0.559
13 | GCACCAUUUUAAGAUCUGCTT against Prr13 | inactive: 0.238
14 | CCACUUUCACAUGAAGUUATT against Eif2s3x | inactive: -0.7
15 | GGAAUCUGCUUUCAGCUUGTT against Olfr1044 | inactive: -0.152
16 | GGAAAGUCUAAAGGAAAUUTT against Crnkl1 | inactive: -1.07
17 | AGCUCAUUUACAAGUGAGGTT against 1700073E17Rik | inactive: 0.117
18 | GGUUGUCAGUAAGAACCUGTT against Polr3a | inactive: 0.275
19 | GGAGCUUCUAGAGAAGAUCTT against Tsen34 | inactive: -0.305
20 | GGAGCAUGGAACAAUAAUATT against Fli1 | inactive: 1.65
21 | GGUCAAAACUGCUCUGCACTT against Lepr | inactive: -1.73
22 | GUAUCCUUCACAACUGUCUTT against Olfr786 | inactive: -1.66
23 | GCUCACCACUUUUAAAACATT against Hectd2 | inactive: -0.122

Row | Sequence | z-score
24 | GGCAGUAAGAAAGGUUCAATT against Btk | inactive: -0.437
25 | GGAUGUUGAAGAUGAGUCATT against Haus3 | inactive: 0.707
26 | GGAUGCAUCUAAGGAUAAGTT against Gna13 | inactive: -1.36
27 | CGGUGGUAGAUGAGAUGUUTT against Ap2s1 | inactive: -1.09
28 | CGUUCAUUUCUAAUGGAAATT against Fkbp14 | inactive: 0.474
29 | GGACGAGGAGUACGAGCAATT against Nfkbia | active: 2.6
30 | GGUAUAAGUUGGCAAGAUCTT against Cry2 | inactive: 0.849
31 | GCAGGUUAAGUAGCUGACATT against Dync1li2 | active: -2.37
32 | UAGCCAUCGCUCUUUCUUATT against Olfr594 | inactive: 0.216
33 | GGGUUUUUGUCAAAUCUGUTT against Ttc5 | active: -2.24
34 | CCAACAACAGAUGCACCCUTT against Ccl11 | inactive: -1.22
35 | GCUUUUGAUCCACAGAUUUTT against Prss33 | inactive: 0.372
36 | CCACCGUAAACUUCCCACCTT against Igha | inactive: -0.483
37 | GCUGUGUAGUGUGCUAUUUTT against Slc6a15 | inactive: 1.18
38 | GGUGACUAUGAAGAAAAAATT against F13a1 | inactive: -0.727
39 | CGUGAUGUUUCGGAAGACATT against Grtp1 | inactive: 1.44
40 | GGCUCUGCCAUUUUCCCUUTT against F12 | inactive: -1.24
41 | AACUGGACCACGGUACCAATT against A330070K13Rik | inactive: 0.876
42 | GGAAGUAAUCAAGAAAUCATT against Gpx4 | inactive: 0.395
43 | GCUUCUUACUGAUUGAUUGTT against Mgrn1 | inactive: 0.151
44 | GGAUCCAUUUUGAGGAUUUTT against Vipr1 | inactive: -0.056
45 | CCAGUGUUCUUACCUGGUGTT against Sesn2 | inactive: 0.949
46 | GGUCUAACGAGUUCAAAAATT against Brpf1 | inactive: -0.438

Copied from the list:
z-score with GCUUUUGAUCCACAGAUUUTT against Prss33 is entered as inactive: 0.372
z-score with GGGUUUUUGUCAAAUCUGUTT against Ttc5 is entered as active: -2.24

More entries

Row | Sequence | z-score
47 | GGGAGGGAUGCAGUAAAUGTT against Acaa1a | inactive: -0.337
48 | GCAUACCUAGGAAAAAACUTT against Ednra | inactive: 0.524
49 | GGUGACAAAGAAAACAACATT against Il12rb2 | inactive: -0.242
50 | GCCACAGUAUAGCACAAAGTT against Zfp810 | inactive: 0.196
51 | GCCUGACACUUGAUAUGUATT against Slc25a23 | inactive: -1.63
52 | GGAGGUUUUCCACCACUUGTT against Efcc1 | active: -2.04
53 | GCGAGUGUAUAAUAUUCCUTT against Blnk | inactive: 1.07
54 | GCCUGUUAUUCAACAUUCUTT against Diaph2 | inactive: 1.18
55 | GGACUAAUGGUGUUCACUGTT against Pcnx4 | inactive: -1.35
56 | GGCAUGCUCAGGUCGUGUUTT against Rita1 | inactive: -1.74
57 | GGAACACAACUUCCUGUUCTT against Map11 | inactive: 1.05
58 | GGGAGAGGACGACCUAAAATT against 4921524J17Rik | inactive: -0.0124
59 | GGCAUGAAUGGGAUACAUGTT against Srpk2 | inactive: -1.22
60 | GGAGCUUUGAAGAGACUGGTT against Olfr117 | active: -2.32
61 | GCAUCAAAUAGUGGUACCUTT against Lsm14a | inactive: -0.209
62 | GGUAUUUAGUAAACACCCATT against Edar | inactive: 0.413
63 | GGACUCUGAUCUCUAUCAGTT against Tac2 | inactive: -0.357
64 | GGGACUCAACCUAUAUCUUTT against Gnpat | inactive: 0.118
65 | GGCCAGGAGAAGAUUGAACTT against Ccdc42 | inactive: 0.00447
66 | CCCGGAUCUUUUCCUUACATT against Klf1 | inactive: -1.17
67 | GGUGAAAUUACAGCAUUGUTT against Otx1 | inactive: -0.673
68 | GGAACAUAAUGCAUUACCCTT against Nr1d2 | inactive: 1.17
